ClpP1P2: 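ClpP1P2, Mycobacterium tuberculosis (UniProt P9WPC5 and UniProt P9WPC3). Protease assay of ClpP1P2, read by the AMC dye that it sets free. Compounds at 50 µM. Higher reads as stronger inhibition, judged from the few compounds that gave an IC50. Most other retested compounds had strongly negative values. About 69,000 compounds were tested under these conditions; 0.015% (about 10) showed 50% or more at least once.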
TcHisRS: 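Histidine-tRNA ligase, Trypanosoma cruzi CL Brener (UniProt Q4DA54). Enzyme assay of histidyl-tRNA synthetase; the read-out is not stated. Concentration: 30 µM. Direction is inferred from retests: higher values go with stronger inhibition. Size under these conditions: about 69,000 compounds, about 31 of them at 50% or above in at least one test.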
PfKRS1: 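Enzyme assay of the cytosolic lysyl-tRNA synthetase in 384-well plates, read by luminescence. Target: Lysine-tRNA ligase, Plasmodium falciparum 3D7 (UniProt Q8IDJ8). Compounds at 30 µM. Higher reads as stronger inhibition, judged from the few compounds that gave an IC50. Size under these conditions: about 69,000 compounds, about 49 of them at 50% or above in at least one test.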
Pks13 thioesterase: 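Enzyme assay of the thioesterase domain of polyketide synthase 13; the read-out is not stated. Target: Polyketide synthase Pks13, Mycobacterium tuberculosis (UniProt I6X8D2). Concentration: 30 µM. The record gives no direction; the compounds picked for IC50 retests had high values, so higher reads as stronger inhibition. Size under these conditions: about 67,000 compounds, about 300 of them at 50% or above in at least one test.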

Protein sequences, listed by entry. Tags and fused reporters are not part of them. Residues count along the entry.
UniProt P9WPC5, whole entry: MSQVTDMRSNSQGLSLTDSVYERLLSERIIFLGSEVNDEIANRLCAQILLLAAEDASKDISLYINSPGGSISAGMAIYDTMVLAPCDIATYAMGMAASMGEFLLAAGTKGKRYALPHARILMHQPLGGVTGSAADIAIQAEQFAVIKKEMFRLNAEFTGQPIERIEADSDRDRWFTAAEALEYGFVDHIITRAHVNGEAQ
UniProt P9WPC3, whole entry partner: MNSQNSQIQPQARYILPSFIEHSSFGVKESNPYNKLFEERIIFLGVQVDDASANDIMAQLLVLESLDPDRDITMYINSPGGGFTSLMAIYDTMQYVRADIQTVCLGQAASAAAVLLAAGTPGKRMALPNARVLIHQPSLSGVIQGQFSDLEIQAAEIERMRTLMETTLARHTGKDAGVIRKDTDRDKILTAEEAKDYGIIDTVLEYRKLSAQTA
UniProt Q4DA54, 1-478: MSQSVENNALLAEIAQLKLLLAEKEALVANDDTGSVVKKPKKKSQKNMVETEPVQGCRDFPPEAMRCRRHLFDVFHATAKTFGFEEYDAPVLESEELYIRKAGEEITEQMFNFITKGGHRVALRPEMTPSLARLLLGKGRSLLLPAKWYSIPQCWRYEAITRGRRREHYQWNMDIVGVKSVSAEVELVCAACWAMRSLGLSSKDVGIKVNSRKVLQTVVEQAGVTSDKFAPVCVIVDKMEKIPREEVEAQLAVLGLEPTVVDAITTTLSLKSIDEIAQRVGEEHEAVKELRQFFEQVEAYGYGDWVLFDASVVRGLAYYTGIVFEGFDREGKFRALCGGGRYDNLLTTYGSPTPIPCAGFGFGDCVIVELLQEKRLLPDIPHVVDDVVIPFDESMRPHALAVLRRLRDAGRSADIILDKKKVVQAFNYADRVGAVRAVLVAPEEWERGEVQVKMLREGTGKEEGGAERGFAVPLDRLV
UniProt Q8IDJ8, 1-583: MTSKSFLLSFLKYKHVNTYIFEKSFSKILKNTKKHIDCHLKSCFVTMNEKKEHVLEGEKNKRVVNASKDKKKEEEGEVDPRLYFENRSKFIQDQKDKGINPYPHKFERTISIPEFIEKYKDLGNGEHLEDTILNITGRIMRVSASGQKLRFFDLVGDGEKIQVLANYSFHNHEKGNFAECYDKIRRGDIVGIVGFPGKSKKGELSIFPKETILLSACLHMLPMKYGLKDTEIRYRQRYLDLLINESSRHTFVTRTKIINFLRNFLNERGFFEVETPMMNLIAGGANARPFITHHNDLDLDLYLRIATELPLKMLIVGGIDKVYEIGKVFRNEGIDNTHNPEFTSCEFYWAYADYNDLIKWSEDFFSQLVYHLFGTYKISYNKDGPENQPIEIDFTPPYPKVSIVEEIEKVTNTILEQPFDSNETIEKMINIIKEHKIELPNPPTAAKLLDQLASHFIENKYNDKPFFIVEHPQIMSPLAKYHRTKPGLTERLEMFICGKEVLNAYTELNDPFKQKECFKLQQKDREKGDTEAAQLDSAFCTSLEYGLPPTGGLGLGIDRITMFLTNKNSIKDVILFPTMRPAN
UniProt I6X8D2, whole entry: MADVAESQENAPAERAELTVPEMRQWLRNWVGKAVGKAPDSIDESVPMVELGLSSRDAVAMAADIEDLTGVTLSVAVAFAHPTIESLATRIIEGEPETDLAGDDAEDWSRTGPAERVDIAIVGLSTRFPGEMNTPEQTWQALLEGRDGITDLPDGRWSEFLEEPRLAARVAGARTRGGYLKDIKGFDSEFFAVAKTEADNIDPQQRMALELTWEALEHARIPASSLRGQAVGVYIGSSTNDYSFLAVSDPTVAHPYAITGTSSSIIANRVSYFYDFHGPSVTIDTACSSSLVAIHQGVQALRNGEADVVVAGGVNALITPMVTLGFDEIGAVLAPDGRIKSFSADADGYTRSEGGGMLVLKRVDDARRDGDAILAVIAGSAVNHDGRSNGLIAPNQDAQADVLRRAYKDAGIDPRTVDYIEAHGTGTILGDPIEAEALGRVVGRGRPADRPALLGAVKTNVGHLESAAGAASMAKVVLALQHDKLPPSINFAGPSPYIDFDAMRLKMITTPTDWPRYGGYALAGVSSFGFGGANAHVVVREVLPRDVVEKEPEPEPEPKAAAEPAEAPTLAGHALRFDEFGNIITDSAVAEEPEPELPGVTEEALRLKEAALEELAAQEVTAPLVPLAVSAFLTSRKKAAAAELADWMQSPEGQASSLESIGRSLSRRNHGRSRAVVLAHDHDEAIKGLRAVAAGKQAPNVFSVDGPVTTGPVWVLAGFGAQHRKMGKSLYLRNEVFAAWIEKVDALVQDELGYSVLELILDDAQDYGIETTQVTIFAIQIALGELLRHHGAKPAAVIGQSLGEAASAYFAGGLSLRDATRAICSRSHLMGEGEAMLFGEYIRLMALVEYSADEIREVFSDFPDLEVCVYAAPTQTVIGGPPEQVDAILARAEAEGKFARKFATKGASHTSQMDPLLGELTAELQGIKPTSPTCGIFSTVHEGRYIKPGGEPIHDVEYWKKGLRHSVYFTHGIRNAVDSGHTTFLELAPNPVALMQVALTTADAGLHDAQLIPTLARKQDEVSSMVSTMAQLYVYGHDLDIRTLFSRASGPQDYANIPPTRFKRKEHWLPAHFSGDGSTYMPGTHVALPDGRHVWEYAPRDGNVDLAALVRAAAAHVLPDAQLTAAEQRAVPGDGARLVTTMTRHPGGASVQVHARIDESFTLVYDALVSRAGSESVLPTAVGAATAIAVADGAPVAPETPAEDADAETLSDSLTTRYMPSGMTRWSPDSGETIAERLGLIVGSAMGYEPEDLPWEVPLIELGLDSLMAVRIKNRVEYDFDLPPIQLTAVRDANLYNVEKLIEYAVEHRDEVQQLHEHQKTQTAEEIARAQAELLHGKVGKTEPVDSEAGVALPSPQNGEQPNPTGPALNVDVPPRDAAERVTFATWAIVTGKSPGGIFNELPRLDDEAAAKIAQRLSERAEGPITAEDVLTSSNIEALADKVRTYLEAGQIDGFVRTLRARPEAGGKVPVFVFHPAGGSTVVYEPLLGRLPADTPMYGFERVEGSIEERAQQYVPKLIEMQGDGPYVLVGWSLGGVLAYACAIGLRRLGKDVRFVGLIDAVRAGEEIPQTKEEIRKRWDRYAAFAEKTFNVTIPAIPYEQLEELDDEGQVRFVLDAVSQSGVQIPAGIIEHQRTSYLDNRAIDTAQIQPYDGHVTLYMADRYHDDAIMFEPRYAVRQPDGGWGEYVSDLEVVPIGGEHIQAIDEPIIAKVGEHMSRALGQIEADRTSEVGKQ

Each number is a percent effect as filed. The record does not define 0% and 100%; most values in the screen are far below 50% and negative numbers occur (in some assays of this library far below -100). The compounds are a random part of those screened. A dash means the value is not listed here; it may have been measured.

| structure | ClpP1P2 | TcHisRS | PfKRS1 | Pks13 thioesterase |
|---|---|---|---|---|
| `CN1CCN(C(=O)NC2CCCC2)Cc2cccnc21` | -5.899% | 6.863% | 10.05% | 20.27% |
| `COc1ccc2cccc(CC(=O)NCc3n[nH]c(=O)[nH]3)c2c1` | -4.227% | 3.947% | 6.51% | -31.16% |
| `CN(C)CCN1CCc2ncc(CN(C)Cc3ccco3)n2CC1` | -7.082% | 3.681% | -7.445% | 26.22% |
| `COCCN1C(=O)CCC12CCCN(C(=O)CC1CC1)CC2` (centres undefined) | -4.39% | 9.135% | 6.236% | -19.92% |
| `CNC(=O)[C@@]12CCC3(CCN(S(C)(=O)=O)CC3)[C@@H]1CN(C(C)=O)C2` | -16.43% | 3.738% | 0% | -11% |
| `CC(NC(=O)NCC(C)(C)C(N)=O)c1nc(-c2ccccc2)cs1` (centres undefined) | 4.646% | 6.667% | 1.176% | 55.9% |
| `Cc1cc(C)c(C(=O)NCCNc2ncnc3ccccc23)c(=O)[nH]1` | -1.115% | 4.762% | 1.64% | -22.6% |
| `O=C(NCC1(O)CCOCC1)c1ccn(-c2ccccc2F)n1` | 1.603% | 2.941% | 3.197% | -23.53% |
| `O=C(NCc1ccoc1)Nc1ccc(CN2CCOC2=O)cc1` | 5.089% | 3.252% | 2.38% | -12.47% |
| `Fc1ccc(Br)c(NCc2nnsc2Cl)c1` | -7.127% | -6.667% | 2.016% | -9.75% |
| `CN(C)C(=O)NCc1ncn2c1CN(Cc1ccco1)CCC2` | 4.32% | 5.882% | 3.903% | -15.41% |
| `Cc1cnn(-c2ccc(C(=O)N3CCCC(n4ccnc4C)C3)cc2)c1` (centres undefined) | -4.075% | 4.046% | 0.3579% | - |
| `COc1ccc(CCCN(C)C(=O)c2cc(Cl)c[nH]2)cc1OC` | -1.477% | 1.657% | 2.326% | -33.78% |
| `O=C(CN1CCC(c2nnc(C(F)(F)F)o2)CC1)Nc1cccnc1` | -2.03% | 2.646% | 5.37% | 1.274% |
| `Cc1cncc(C(=O)N2Cc3ccccc3C3(CCN(C)CC3)C2)c1` | -16.47% | 2.732% | 4.607% | -10.18% |
| `OCC(O)CSCc1cn(-c2ccc(Cl)c(Cl)c2)nn1` (centres undefined) | 10.15% | 0.8403% | 2.981% | -25.36% |
| `COCC1CC2(CCN(C(C)=O)CC2)CN1Cc1csc(C)n1` (centres undefined) | 0.7327% | 1.604% | 3.987% | -23.75% |
| `COc1ccc(-c2ccc(C(=O)NCCCC(N)=O)c(F)c2)c(F)c1` | -10.39% | 5.952% | 8.035% | 6.665% |
| `Cn1ccnc1CN1CCC2(CC1)COCCN(c1ncccn1)C2` | -13.09% | -1.676% | 1.216% | 13.07% |
| `CN1[C@H](CO)C[C@H](CNCc2ccc(Cl)c(F)c2)[C@@H]1c1ccccc1F` | -11.93% | 15.34% | 8.455% | -10.21% |
| `N#Cc1cccc(CN2C[C@@H](F)[C@@H](OCc3nc4cnccc4[nH]3)C2)c1` | -8.471% | 4.478% | 2.601% | 14.06% |
| `Cc1nc(CC(=O)N2CCN(c3ccc(N(C)C)cc3)CC2)cs1` | -12.91% | 3.333% | -2.145% | - |
| `O=C(CS(=O)(=O)CC1CCCCC1)NC1CCCCNC1=O` (centres undefined) | 1.706% | 2.29% | -3.675% | -15.9% |
| `COc1ccc(-c2nccc(C3CCCN3C)n2)cc1` (centres undefined) | -0.7735% | 13.08% | 2.601% | 4.142% |
| `O=C1CCc2cc(-c3csc(CCN4CCOC4=O)n3)c(F)cc2N1` | -14.12% | 1.153% | 2.137% | -27.93% |
| `O=C(Nc1ccccc1C(=O)N1CCCC1)NC1CCOCC1` | -2.204% | 1.053% | 3.043% | -12.88% |
| `C[C@@H]1CN(C(=O)Cn2ccc3ncccc3c2=O)C[C@H](C)O1` | -5.621% | 8.642% | 6.075% | 14.54% |
| `OC1(CN2CCN(c3cccc(C(F)(F)F)c3)CC2)CNCCOC1` (centres undefined) | 3.454% | 1.657% | -3.442% | -25.98% |
| `Cc1cc(NCC(=O)N(C)C)c(C(N)=O)cc1F` | -65.38% | 3.867% | 1.842% | -56.2% |
| `c1cc(CN2CCC(c3ccnc4nccn34)C2)ccn1` (centres undefined) | -81.71% | 6.513% | -0.1424% | 7.083% |
| `O=C(Cc1c[nH]c2ccccc12)N1CCN(C(=O)c2ccoc2)CC1` | 1.924% | 1.087% | 5.49% | -29.87% |
| `CCN(Cc1nnsc1Cl)C(C)c1ccc(C#N)cc1` (centres undefined) | -9.228% | -1.316% | -2.137% | -19.27% |
| `Cc1nc(C2CCCN(C(=O)c3cc4c(s3)CCCC4)C2)no1` (centres undefined) | -6.75% | 1.754% | 0.5668% | -7.368% |
| `CCC(CN1CCOCC1)NC(=O)Cc1c(C)[nH]c2cc(C)cc(C)c12` (centres undefined) | -15.93% | 3.042% | 0.1519% | -4.358% |
| `Cn1cc(CNC2CCc3ncnn3C2)c(-c2cccnc2)n1` (centres undefined) | -2.391% | 0% | 5.706% | -22.59% |
| `COC(=O)N1CCCC(NC(=O)NCc2nc(C)cs2)C1` (centres undefined) | -6.63% | 4.082% | 2.224% | -16.42% |
| `CCc1n[nH]c(C2CN(C(=O)CCCn3cccn3)CCO2)n1` (centres undefined) | -5.891% | 3.509% | 3.391% | -2.288% |
| `O=C(c1ccc2cc[nH]c2c1)N1CCCN(Cc2cscn2)CC1` | -18.31% | 3.134% | 1.125% | -14.43% |
| `Cc1cc(CN2CC[C@H]3C[C@H](C(=O)Nc4cccnc4C)O[C@@H]3C2)no1` | 16.12% | -0.9852% | -8.545% | -14.23% |
| `CCS(=O)(=O)NCC1OCCc2cn(CCOC)nc21` (centres undefined) | 1.084% | 0% | -1.871% | -21.69% |
| `COc1ncccc1CNCc1cnc(N2CCOCC2)nc1` | 1.919% | 5.82% | 10.03% | -11.91% |
| `CCc1nc(C)c(C(=O)N2C[C@@H](C(=O)O)[C@H](C3CC3)C2)s1` | -2.951% | 1.739% | 4.873% | - |
| `O=c1oc(-c2cccs2)nn1CC(O)c1ccccc1F` (centres undefined) | 4.358% | 10% | 10.2% | 16.33% |
| `Cc1cnn(CC(C)NCCc2cccs2)c1` (centres undefined) | 8.271% | 1.911% | -0.4431% | -15.99% |
| `CC(C(N)=O)N(C)CCCc1cc(-c2ccc(F)cc2)n(C)n1` (centres undefined) | 1.906% | 10.89% | 3.432% | -7.411% |
| `Cn1cccc1C(=O)N1CCC2(CC1)CN(c1ccccn1)CCO2` | -5.863% | -0.8368% | -0.4815% | -13.29% |
| `O=C(NCc1ccccc1CO)Nc1ccc2c(c1)CCO2` | -2.113% | 0% | 4.303% | -4.005% |
| `COCCN1Cc2nccn2CC(COCc2csc(C)n2)C1` (centres undefined) | -13.27% | 2.222% | 4.688% | -9.588% |
| `CCn1c(C)nnc1CN(C)C1CCN(CCCOC)C1` (centres undefined) | 14.66% | 1.132% | 5.414% | -22.64% |
| `COc1cccc2ccn(CC(=O)NCC(C)C)c12` | -4.089% | -2.924% | -0.7759% | -22.36% |
| `CC(C)c1ncncc1C(=O)NCCN1CCCCC1C` (centres undefined) | 5.254% | 0.8772% | -3.843% | -10.98% |
| `COCCNC(=O)CCC1CCN(Cc2cccc(SC)c2)CC1` | -7.196% | 3.784% | -2.543% | - |
| `CCc1nnc(C2Cc3ccccc3CN2Cc2nc(C)no2)o1` (centres undefined) | -37.73% | 9.621% | 0.5419% | -92.15% |
| `CCOc1cc(C(=O)N2CCCC(c3noc(C)n3)C2)ccn1` (centres undefined) | 2.671% | 0.7576% | 0.4309% | -12.47% |
| `Cc1nc(C2CCCN2CC(=O)NCCc2ccsc2)no1` (centres undefined) | -2.245% | 1.149% | 1.794% | -2.817% |
| `Cc1ccc(CN2CCN(c3ncccc3Cl)CC2CCO)cc1` (centres undefined) | -14.28% | 6.329% | 3.777% | -3.581% |
| `Cn1c(CN2CCOCC2)nnc1C1CCN(C(=O)C2CCCC2)CC1` | 3.927% | -0.8333% | 1.596% | -14.31% |
| `Cc1ccc2nc(CN3CCN(C4CCCC4)C(=O)C3)cc(O)c2c1` | 11.74% | 8.163% | -3.829% | -47.8% |
| `Cc1cc2n(n1)CCN(c1nc(N(C)C)nc3c1CCNC3)C2` | 11.57% | 21.54% | -1.054% | -17.02% |
| `CC(C)c1nn(C)cc1CNCc1cccc(N(C)C)c1` | 7.511% | 3.867% | 1.521% | -38.14% |
| `CN(C)C(=O)[C@H]1C[C@@H]2CCN(C3CCOCC3)C[C@H]2O1` | -3.096% | 0.5405% | 3.465% | -11.07% |
| `COc1ccncc1NCc1ccsc1` | 11.05% | 6.818% | -1.947% | -43.41% |
| `O=C(CNC(=O)Nc1cccc(Cl)c1SC(F)F)NC1CC1` | -2.957% | 11.82% | 5.196% | -18.45% |
| `Cc1nc(CC(=O)N2CCCN(c3ccc(F)cc3)CC2)cs1` | -2.141% | -0.8333% | 0.7299% | -10.17% |
| `CC(=O)N1[C@H](Cn2cncn2)C[C@@H]2CN(CC3CC3)CC[C@@H]21` | -18.97% | 8.458% | 4.781% | 14.78% |
| `O=C(c1cccs1)N1CCCn2cnc(COCC3CC3)c2C1` | -5.309% | 5.102% | 0.9762% | 2.387% |

Once more, the final 5:

structure	ClpP1P2	TcHisRS	PfKRS1	Pks13 thioesterase
COc1ccncc1NCc1ccsc1	11.05%	6.818%	-1.947%	-43.41%
O=C(CNC(=O)Nc1cccc(Cl)c1SC(F)F)NC1CC1	-2.957%	11.82%	5.196%	-18.45%
Cc1nc(CC(=O)N2CCCN(c3ccc(F)cc3)CC2)cs1	-2.141%	-0.8333%	0.7299%	-10.17%
CC(=O)N1[C@H](Cn2cncn2)C[C@@H]2CN(CC3CC3)CC[C@@H]21	-18.97%	8.458%	4.781%	14.78%
O=C(c1cccs1)N1CCCn2cnc(COCC3CC3)c2C1	-5.309%	5.102%	0.9762%	2.387%

Measurements from “University of Dundee, Small-Polar-MMV Screening Library” (2021), ChEMBL document CHEMBL3988442.